This is one part of the list. Further columns of the screen follow, without active or inactive calls. Most of these compounds were active or inconclusive in the main read-out, so they are no random draw. The note in brackets gives the kind of curve behind each potency; many fits are weak.
Experiment: qHTS Assay to Find Inhibitors of Chronic Active B-Cell Receptor Signaling
Details: ABC-DLBCL IkBa-CBG/CBR reporter, luminescence ratio (green luciferase fused to IkBa over red control in TMD8 lymphoma cells), 4 h
Outline: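 Doxycycline induced both beetle luciferases in TMD8 lymphoma cells; IKK-driven degradation limits the IkappaBalpha-fused green signal, while red luminescence normalises for cell number and nonspecific effects. Compounds tested up to 46 uM, 4 hrs.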

[1] = measured here: CBR red luminescence, cell number

SMILES	AC50 [1]	AC50 (measured here: IkBa-CBG green luminescence)
C=CCn1c(SCC(=O)c2[nH]c(C)c(C(=O)OCC)c2C)nc2scc(-c3ccc(OC)cc3)c2c1=O	3.26 µM [rising, full curve, poor fit]	–
O=C1NC2(CCCc3ccccc32)C(=O)N1Cc1nnc(-c2ccccc2Br)o1 (centres undefined)	0.1 µM [falling, full curve, poor fit]	–
CC1CCC/C(=N\NC(=O)COc2ccccc2Cl)C1 (centres undefined)	29.1 µM [rising, single point]	–
Nc1nc(CCl)nc(Nc2ccc3ccccc3c2)n1	35.5 µM [falling, single point]	–
CCOc1ccc(S(=O)(=O)N(C)c2ccc(OCC(=O)NCc3ccco3)cc2)cc1	5.8 µM [rising, partial curve, poor fit]	–
COc1ccc(OCCN(C)Cc2ccccc2)cc1	6.51 µM [rising, single point]	–
CCOC(=O)c1nc(NCc2ccccc2C)c2ccccc2n1	35.5 µM [rising, partial curve, poor fit]	–
CS(=O)(=O)c1ccc(NC(=O)c2cccc(S(=O)(=O)N3CCN(Cc4ccccc4)CC3)c2)cc1	3.55 µM [falling, partial curve, poor fit]	–
Cc1cc(C(=O)NCCC2=CCCCC2)c(C)o1	6.51 µM [falling, full curve, poor fit]	–
Fc1ccc(OCc2nnc(-c3ccccc3Br)o2)c(Cl)c1	5.01 µM [rising, full curve, poor fit]	–
CC(C)CNC(=O)/C(C#N)=C1\N=C(NC(=O)c2ccco2)c2ccccc21	15.8 µM [falling, single point]	–
CC1CCCC(C)N1C(=O)c1cc(-c2cccs2)on1 (centres undefined)	23.1 µM [rising, partial curve, poor fit]	–
CC(C)NC(=O)Nc1ccc(Br)cc1Cl	35.5 µM [rising, partial curve, poor fit]	–
CCCOc1ccc(C2NC(=S)NC(c3ccccc3)=C2C(=O)Nc2ccc(C)cc2)cc1OC (centres undefined)	8.2 µM [falling, partial curve, poor fit]	–
Cc1c(C(=O)N2CCC2)oc2ccc(Br)cc12	10.3 µM [rising, partial curve]	–
O=C1CSC(=Nc2ccccc2[N+](=O)[O-])N1	35.5 µM [rising, single point]	–
COc1ccc(/C=N/NC(=O)CNC(=O)COc2ccccc2)cc1	6.51 µM [rising, single point]	–
CCCCOC(=O)Nc1cccc(C(C)=O)c1	11.2 µM [rising, partial curve, poor fit]	–
N/C(Cc1ccc(Cl)cc1Cl)=N\OC(=O)c1ccccc1F	15.8 µM [rising, single point]	–
C=CC[n+]1c(-c2ccc(OCC)cc2)csc1NNC(=O)Nc1ccccc1	0.00651 µM [falling, full curve, poor fit]	–
CC1c2cc3c(cc2CCN1C(=O)c1cccc(F)c1)OCCCO3 (centres undefined)	22.4 µM [falling, single point]	–

SMILES	AC50 [1]	AC50 (measured here: IkBa-CBG green luminescence)
CC1(c2cccc(Br)c2)NC(=O)N(CC(=O)Nc2ccc(F)cc2)C1=O (centres undefined)	11.2 µM [falling, single point]	–
Cc1ccc(NC(=O)CNCc2cccs2)c(Br)c1	3.98 µM [rising, full curve, poor fit]	–
CCc1ccc(Nc2nnc(SCC(=O)NC(=O)CN3CCCC3=O)s2)cc1	11.6 µM [falling, partial curve]	–
CC(C)(C)Nc1scc(-c2ccccc2)[n+]1-c1ccccc1	8.91 µM [rising, partial curve, poor fit]	–
CCOc1ccc(NC(=O)CCC(=O)NNC(=O)c2ccco2)cc1	3.55 µM [rising, full curve, poor fit]	–
CCCCOc1ccc(-c2c(C#N)c(N)[nH]c(=S)c2C#N)cc1	12.6 µM [rising, partial curve]	–
COc1ccccc1C(=O)Nc1ccc(S(=O)(=O)N2CCOCC2)cc1	4.11 µM [falling, single point]	–
NC(=O)c1ccc(N2CCCCC2)c(N2C(=O)CCC2=O)c1	12.6 µM [rising, single point]	–
CC(=O)N1CCN(S(=O)(=O)c2ccc3c(c2)CC(=O)N3)CC1	29.1 µM [rising, single point]	–
COc1ccc(C(CC(=O)c2ccccc2)C2CCCCC2=O)cc1 (centres undefined)	2.91 µM [falling, single point]	–
O=C(Nc1ccc(OCc2ccccc2)cc1)c1cccnc1	6.51 µM [rising, partial curve, poor fit]	–
CC(C)(C)c1csc(NNC(=O)c2ccc(Br)cc2)n1	35.5 µM [falling, single point]	–
CC[C@]12c3[nH]c4cc(CCC(=O)N(C)C)ccc4c3CCN1C(=O)[C@@H](CC(=O)NCCCOC)C[C@@H]2C(=O)N1CCN(C(=O)c2ccco2)CC1	16.4 µM [rising, partial curve, poor fit]	–
CCCNc1c(NS(=O)(=O)c2ccc(NC(=O)CC)cc2)c(=O)oc2ccccc12	10 µM [falling, partial curve, poor fit]	–
COc1cc(NC(=O)c2ccnnc2)cc(C(=O)Nc2cccc(C(F)(F)F)c2)c1	11.2 µM [falling, partial curve]	–
CCn1c(/C=C/c2ccccc2C)nc2ccccc2c1=O	10 µM [falling, partial curve, poor fit]	–
NS(=O)(=O)c1ccc(Nc2nc(-c3ccc4ccccc4c3)cs2)cc1	20.6 µM [rising, partial curve]	–
COc1ccccc1N1CCN(C(=O)C2CCN(S(=O)(=O)c3ccc4c(c3)CC(C)N4C(=O)C3CC3)CC2)CC1 (centres undefined)	35.5 µM [falling, single point]	–
O=C(O)c1cccc(CSc2nnc(-c3ccc(Cl)cc3)o2)c1	14.1 µM [falling, partial curve, poor fit]	–
COc1ccc(Nc2sc(C(=O)Nc3cccc(Cl)c3)c(N)c2C(=O)Nc2ccccc2OC)cc1	16.4 µM [falling, partial curve]	16.4 µM [rising, single point]
Cn1ccnc1C(O)c1cc(C(C)(C)C)c(O)c(C(C)(C)C)c1 (centres undefined)	11.2 µM [falling, partial curve]	–

SMILES	AC50 [1]	AC50 (measured here: IkBa-CBG green luminescence)
CC(=O)c1cc2c(cc1NC(=O)Cn1nc(-c3ccc(C)cc3)ccc1=O)OCO2	0.2 µM [rising, full curve, poor fit]	–
CCCCNc1ncnc2c1cnn2-c1ccc(C)cc1C	1.3 µM [rising, partial curve, poor fit]	–
CCN(CC)Cc1c(O)ccc2occ(C(=O)c3ccccc3)c12	6.31 µM [rising, single point]	–
CCOC(=O)c1[nH]c2ccc(OC)cc2c1NC(=O)CN1CCC2(CC1)OCCO2	0.00651 µM [rising, full curve, poor fit]	–
N/C(=N\NC(=O)c1cccs1)c1cc2ccccc2oc1=O	18.4 µM [falling, single point]	–
CC(C)CC(=O)NC(=S)NNC(=O)c1cccc([N+](=O)[O-])c1	6.31 µM [rising, single point]	–
COc1cccc(/C=N/Nc2ncnc3scc(-c4ccccc4)c23)c1O	0.92 µM [falling, full curve]	–
Cc1ccccc1CSc1nnnn1-c1ccc(C(N)=O)cc1	0.708 µM [rising, full curve, poor fit]	–
O=C1c2ccccc2-c2ccc(C(=O)N3CCOCC3)cc21	32.6 µM [falling, single point]	–
COc1ccc(-c2cc(=O)[nH][nH]2)cc1	9.2 µM [falling, partial curve, poor fit]	–
COc1ccc(-c2cc(-c3ccccc3O)[nH]n2)cc1	8.91 µM [falling, partial curve, poor fit]	–
COc1ccc(N2CC(C(=O)N(C)CC(=O)Nc3ccc(Cl)c(C(F)(F)F)c3)CC2=O)c(OC)c1 (centres undefined)	6.51 µM [rising, partial curve, poor fit]	–
C/C(Nc1ccc(F)cc1)=C(/C#N)C(N)=O	0.251 µM [falling, full curve, poor fit]	–
CC(C)(C)NC(=O)[C@@H]1C[C@@H]2CCCC[C@@H]2CN1C[C@@H](O)[C@H](Cc1ccccc1)NC(=O)[C@H](CC(N)=O)NC(=O)c1ccc2ccccc2n1	11.2 µM [falling, partial curve, poor fit]	–
CCOC(=O)CSc1nc2ccccc2c(=O)n1CC(C)C	0.794 µM [falling, full curve, poor fit]	–
COc1ccc(OC)c(NS(=O)(=O)c2ccc(NC(=O)c3ccc(NS(C)(=O)=O)cc3)cc2)c1	0.116 µM [falling, full curve, poor fit]	–
CN(C)S(=O)(=O)c1cccc(NC(=O)c2ccc3c(c2)OCCO3)c1	2.06 µM [falling, full curve, poor fit]	–
NC(=O)CN1C(=O)NC2(CCOc3ccccc32)C1=O (centres undefined)	35.5 µM [rising, single point]	–
COc1ccc(/C=C/CN2CCC(CO)(Cc3ccccc3Cl)CC2)cc1	20 µM [falling, single point]	–
CCn1c(CNc2ccc(Cl)cc2)nnc1SCC(=O)OC1CCCCC1	10.3 µM [falling, partial curve, poor fit]	–
COc1ccc2c(c1)c(C(O)CN1CCC(Cc3ccccc3)CC1)c(C)n2C (centres undefined)	5.01 µM [falling, full curve]	–

Sorted by length of the SMILES (largest number first): part of the list above
SMILES	AC50 [1]	AC50 (measured here: IkBa-CBG green luminescence)
CC(C)(C)NC(=O)[C@@H]1C[C@@H]2CCCC[C@@H]2CN1C[C@@H](O)[C@H](Cc1ccccc1)NC(=O)[C@H](CC(N)=O)NC(=O)c1ccc2ccccc2n1	11.2 µM [falling, partial curve, poor fit]	–
COc1ccc(N2CC(C(=O)N(C)CC(=O)Nc3ccc(Cl)c(C(F)(F)F)c3)CC2=O)c(OC)c1 (centres undefined)	6.51 µM [rising, partial curve, poor fit]	–
COc1ccc(OC)c(NS(=O)(=O)c2ccc(NC(=O)c3ccc(NS(C)(=O)=O)cc3)cc2)c1	0.116 µM [falling, full curve, poor fit]	–
CC(=O)c1cc2c(cc1NC(=O)Cn1nc(-c3ccc(C)cc3)ccc1=O)OCO2	0.2 µM [rising, full curve, poor fit]	–
CCOC(=O)c1[nH]c2ccc(OC)cc2c1NC(=O)CN1CCC2(CC1)OCCO2	0.00651 µM [rising, full curve, poor fit]	–
COc1ccc2c(c1)c(C(O)CN1CCC(Cc3ccccc3)CC1)c(C)n2C (centres undefined)	5.01 µM [falling, full curve]	–
CC(C)CC(=O)NC(=S)NNC(=O)c1cccc([N+](=O)[O-])c1	6.31 µM [rising, single point]	–
COc1ccc(/C=C/CN2CCC(CO)(Cc3ccccc3Cl)CC2)cc1	20 µM [falling, single point]	–
CCn1c(CNc2ccc(Cl)cc2)nnc1SCC(=O)OC1CCCCC1	10.3 µM [falling, partial curve, poor fit]	–
CCN(CC)Cc1c(O)ccc2occ(C(=O)c3ccccc3)c12	6.31 µM [rising, single point]	–
N/C(=N\NC(=O)c1cccs1)c1cc2ccccc2oc1=O	18.4 µM [falling, single point]	–
COc1ccc(-c2cc(-c3ccccc3O)[nH]n2)cc1	8.91 µM [falling, partial curve, poor fit]	–
CCOC(=O)CSc1nc2ccccc2c(=O)n1CC(C)C	0.794 µM [falling, full curve, poor fit]	–
CCCCNc1ncnc2c1cnn2-c1ccc(C)cc1C	1.3 µM [rising, partial curve, poor fit]	–
COc1ccc(-c2cc(=O)[nH][nH]2)cc1	9.2 µM [falling, partial curve, poor fit]	–
